# About 210 (0.4%) of roughly 52,000 sequences were called active.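 Rule for the calls: active = gene whose silencing raises cell survival under the drug, median off-target-corrected z-score across its silencing RNAs 2 or more; inactive = the rest.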 The list shows a part of the results.
# Test: Resistance to Poly (ADP-Ribose) Polymerase inhibitor: Gene Identification via Genome-wide siRNA Screen
# Conditions: mouse BRCA2 R2336H ES cells, olaparib, CellTiter-Glo viability; active compounds read high
# Procedure, shortened: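 Genome-wide siRNA screen (3 siRNAs/gene, 20 nM) in mouse ES cells carrying hypomorphic BRCA2 R2336H; olaparib 500 nM added 48 h post-transfection, CellTiter-Glo viability 72 h later. Normalized to plate-median negative control; MAD z-scores, gene median, seed-adjusted.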
row,Sequence,z-score
1,GCUCAAUAGCUCAAAGUUUTT against 4833446K15Rik,inactive: 0.0247
2,GCUAAGCAUGAAAUUACCCTT against Pipox,inactive: -0.315
3,CCUGCUGCAUUAUGGUUGATT against Grn,inactive: -1.24
4,GCUCGUGGCAUGUCUCUAUTT against Doc2g,inactive: 0.144
5,CCCUAACAAACCCUAUUAUTT against Jmjd3,inactive: -1.74
6,CCAAUUGUACCUUAUCUGGTT against Tnfrsf4,inactive: -0.771
7,GCGAUUAGGCAAGUUCCAATT against 2610208E05Rik,inactive: -0.413
8,CCAAUGGCGAGACAACUACTT against Aldoa,inactive: -1.96
9,CCAGGUGGGAUAAAUUGAATT against Rpusd4,inactive: -0.654
10,CAUCGUGUGAAACUGGAGATT against BC036313,inactive: 1.43
11,GGAAAAUAAGCUGAAAUUCTT against Pygl,inactive: 0.979
12,GGUAUGGAUGAAGAACUAGTT against Pdhb,inactive: 0.231
13,GGAUGGAUUCCCAGGAACATT against Crybb1,inactive: 2.62
14,GGUUCCUCAUUUGUAGAUGTT against D830050J10Rik,inactive: 0.198
15,GCUCUUGUUAUACUUAACATT against Hr,inactive: -1.51
16,GCUAUUAUUGGGCUUUACCTT against Olfr341,inactive: -0.625
17,GGACUUUCUUCACGUGUAUTT against 5730577I03Rik,inactive: 1.04
18,GGCACCAUGAACAAGUUACTT against Numbl,inactive: 2.61
19,CCACUAUUUAAUCUUACCGTT against Hoxc13,inactive: 0.343
20,GGUCCAAAACUGUUCUUCUTT against Dfy,inactive: 0.66
21,GGCUUUUGGCAACAGCACUTT against Rbm14,inactive: 1.13
22,GGAUGGACCGCAUUGAAAATT against 2900002H16Rik,inactive: 0.547

row,Sequence,z-score
1,GCCCUUGGAAUUUACCACUTT against Aldh8a1,inactive: -1.17
2,GCAGUUCAAGUCUUGAAUATT against Olfr934,inactive: 2.02
3,CCGAUCAUUAUGAGCAUACTT against Nxf7,inactive: -0.579
4,GUACACCACAAUCCUCACCTT against Olfr677,inactive: 0.354
5,GGUAAGGGUCUCUUAUUGCTT against LOC545558,inactive: 1.44
6,GCAGAGGAUAUAAAACAAGTT against Pde2a,active: 0.234
7,GCUUAAGUGUGAUACAGUGTT against Rarsl,inactive: -1.56
8,GGAGAAAUCAGAAUUUUUGTT against AA545217,inactive: 1.17
9,GGAUAAAGGACGAUGAGAUTT against BC026370,inactive: 0.783
10,GGGUUAAACCACAUAUCCATT against 1700030K01Rik,inactive: 0.495
11,CGUUUUUUUCCUGAGCUAUTT against 2310061I09Rik,inactive: 1.53
12,GGCUUCUUUGUUGUUUGCATT against M6pr,inactive: -0.838
13,CGACCAGUCACAAUGGUUATT against Edil3,inactive: 0.381
14,GUAUGGAUGUGGAAGCCUCTT against Olfr1417,inactive: -0.497
15,GGGAAGGAGUUUUUGAAAATT against Tinf2,inactive: -0.223
16,GGAGUUGUCUACCAAAGUUTT against Dp1,inactive: -2.12
17,GGAGAACACAGGUGGACUUTT against Ppy,inactive: -0.976
18,GGUGCCAACAAUACUAAACTT against Phr1,inactive: 1.82
19,GACAAGGCUUCAUAAAAAGTT against 2610028H07Rik,inactive: 0.648
20,GGACUCAAAACCAUUUACATT against 1200002N14Rik,inactive: 0.796
21,CGAUCAUGAGUCGAAGACUTT against Olfr1257,inactive: 1.77
22,GGAGAAAGAUGUGCUCUGGTT against Il1rap,inactive: -0.258

# An excerpt of these results, as tab-separated lines:
row	Sequence	z-score
1	GCCCUUGGAAUUUACCACUTT against Aldh8a1	inactive: -1.17
3	CCGAUCAUUAUGAGCAUACTT against Nxf7	inactive: -0.579
4	GUACACCACAAUCCUCACCTT against Olfr677	inactive: 0.354
20	GGACUCAAAACCAUUUACATT against 1200002N14Rik	inactive: 0.796
21	CGAUCAUGAGUCGAAGACUTT against Olfr1257	inactive: 1.77

# More records.

row,Sequence,z-score
1,GCUCAGUGGACAUGCUCUATT against Hpse,inactive: -1.16
2,CGGCAAGGUUUGAAUUUAGTT against D10Ucla1,inactive: 1.26
3,GCCAGAUGCGAUUCUCAGGTT against C730034F03Rik,inactive: 0.296
4,GGUGAUGGGCAAGGUGUUCTT against Syvn1,inactive: -0.0146
5,GGAAAGUGCAGGAGAACAGTT against Mettl2,inactive: -1.79
6,CCUACACAGCUGAAAUGGUTT against Olfr710,inactive: 1.06
7,GGUCAUAGCAUCUACGGCUTT against LOC215714,inactive: 1.17
8,GGACUAUCUUUAUGAUGUGTT against Ush1c,inactive: -0.547
9,GGCAUUUGACUUUAUUGCATT against Nit1,inactive: -0.326
10,GCUUGAAGCGAGACGAUACTT against Bhlhb3,inactive: 2.98
11,GGAUGACAUCCAGACCAUGTT against 1810009B06Rik,inactive: 0.483
12,GGGCUCUUGCCAGAAAACGTT against Rshl2,inactive: 0.0505
13,GGAGAUUACCAGGUAUCAGTT against Ptpn21,inactive: -0.143
14,GGUUCGUUUGCAUUGGAAUTT against Cysltr1,inactive: -0.728
15,GCUUAUUAACCACUACCACTT against Pik3r3,inactive: 0.193
16,GUUUAUCCACAUUGCCUUCTT against Olfr559,inactive: -1.48
17,GCCGUUACCGAUCUCUCCATT against Zfp61,inactive: -0.435
18,GGUGUUCCUUUCACGAACATT against 5330427M13Rik,inactive: -0.371
19,GCUGAUGUGAACUCAUCAUTT against Usmg5,inactive: 0.765
20,GGAAAUAGACACCAAGAGCTT against 9130404D08Rik,inactive: 0.368
21,GGAUCUGAAGAUGAUGAACTT against 9030624L02Rik,inactive: 0.339
22,GCUUCAUCCACCAUUAAUCTT against Rabgap1,inactive: 1.71
